Laboratory results as given in PMC8473878.
Results are given in words; binding and its absence hold for the method and conditions named. Binding seen in cells or lysates may run through a third protein. Some entries that bind do so weakly or less than the wild type. Where a sequence is shown, tags or fusion partners need not be part of it.

The chains behind the UniProt entries cited, without tags or fusion partners. Residues count along the entry.
UniProt P30530, residues 26-894: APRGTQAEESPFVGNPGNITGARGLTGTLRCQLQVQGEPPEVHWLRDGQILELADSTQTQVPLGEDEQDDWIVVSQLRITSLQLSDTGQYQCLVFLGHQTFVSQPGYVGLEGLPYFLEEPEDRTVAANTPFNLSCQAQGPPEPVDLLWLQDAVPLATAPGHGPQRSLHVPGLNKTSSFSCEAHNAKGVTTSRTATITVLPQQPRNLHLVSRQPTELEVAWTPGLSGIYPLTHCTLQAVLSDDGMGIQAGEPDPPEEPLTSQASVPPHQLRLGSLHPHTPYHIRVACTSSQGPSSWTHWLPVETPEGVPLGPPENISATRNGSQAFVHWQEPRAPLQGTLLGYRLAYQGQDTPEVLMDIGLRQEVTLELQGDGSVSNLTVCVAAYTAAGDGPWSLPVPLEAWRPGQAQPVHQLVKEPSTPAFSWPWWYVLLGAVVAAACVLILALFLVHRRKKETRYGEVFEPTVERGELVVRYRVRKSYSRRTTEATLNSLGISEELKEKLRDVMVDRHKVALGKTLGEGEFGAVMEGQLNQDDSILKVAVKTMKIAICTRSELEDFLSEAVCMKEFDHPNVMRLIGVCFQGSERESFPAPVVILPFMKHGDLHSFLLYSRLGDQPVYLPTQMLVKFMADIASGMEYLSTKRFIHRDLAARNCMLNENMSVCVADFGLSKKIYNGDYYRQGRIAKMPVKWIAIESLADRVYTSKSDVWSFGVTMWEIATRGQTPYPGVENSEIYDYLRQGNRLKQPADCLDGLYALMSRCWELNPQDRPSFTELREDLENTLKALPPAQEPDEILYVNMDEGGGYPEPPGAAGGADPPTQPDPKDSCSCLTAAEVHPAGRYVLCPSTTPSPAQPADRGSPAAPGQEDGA
UniProt P10909, residues 23-449: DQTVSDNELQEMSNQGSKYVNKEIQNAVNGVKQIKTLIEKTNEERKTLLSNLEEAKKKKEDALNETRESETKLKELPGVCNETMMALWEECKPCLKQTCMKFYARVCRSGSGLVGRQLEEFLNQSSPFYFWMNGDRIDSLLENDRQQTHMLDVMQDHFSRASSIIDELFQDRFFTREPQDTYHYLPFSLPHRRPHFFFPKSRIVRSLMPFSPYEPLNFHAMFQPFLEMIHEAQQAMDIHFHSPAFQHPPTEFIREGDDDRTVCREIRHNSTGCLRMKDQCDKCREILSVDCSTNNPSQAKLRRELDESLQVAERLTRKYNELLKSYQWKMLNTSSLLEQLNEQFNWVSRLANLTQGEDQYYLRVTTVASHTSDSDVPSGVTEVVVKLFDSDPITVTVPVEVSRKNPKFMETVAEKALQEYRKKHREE
UniProt Q14240: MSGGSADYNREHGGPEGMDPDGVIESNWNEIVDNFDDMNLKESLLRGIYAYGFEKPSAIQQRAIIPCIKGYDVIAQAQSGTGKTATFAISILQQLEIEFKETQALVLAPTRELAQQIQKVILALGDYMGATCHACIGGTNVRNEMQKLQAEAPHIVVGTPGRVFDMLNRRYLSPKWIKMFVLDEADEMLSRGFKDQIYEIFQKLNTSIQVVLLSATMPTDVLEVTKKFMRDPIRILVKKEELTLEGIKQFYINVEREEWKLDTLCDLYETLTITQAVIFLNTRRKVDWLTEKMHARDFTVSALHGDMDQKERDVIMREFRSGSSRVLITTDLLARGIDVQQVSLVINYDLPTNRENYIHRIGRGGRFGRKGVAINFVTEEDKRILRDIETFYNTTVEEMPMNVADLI

The substances below were run against T1, 3×FLAG-fused B4GALNT2 (β1,4-N-acetylgalactosaminyltransferase 2) (UniProt Q8NHY0) (assay: co-IP; Co-IP verification of 8 candidate proteins with 3×FLAG-B4GALNT2 in MDA-MB-231; further conditions not told).
T1 sequence: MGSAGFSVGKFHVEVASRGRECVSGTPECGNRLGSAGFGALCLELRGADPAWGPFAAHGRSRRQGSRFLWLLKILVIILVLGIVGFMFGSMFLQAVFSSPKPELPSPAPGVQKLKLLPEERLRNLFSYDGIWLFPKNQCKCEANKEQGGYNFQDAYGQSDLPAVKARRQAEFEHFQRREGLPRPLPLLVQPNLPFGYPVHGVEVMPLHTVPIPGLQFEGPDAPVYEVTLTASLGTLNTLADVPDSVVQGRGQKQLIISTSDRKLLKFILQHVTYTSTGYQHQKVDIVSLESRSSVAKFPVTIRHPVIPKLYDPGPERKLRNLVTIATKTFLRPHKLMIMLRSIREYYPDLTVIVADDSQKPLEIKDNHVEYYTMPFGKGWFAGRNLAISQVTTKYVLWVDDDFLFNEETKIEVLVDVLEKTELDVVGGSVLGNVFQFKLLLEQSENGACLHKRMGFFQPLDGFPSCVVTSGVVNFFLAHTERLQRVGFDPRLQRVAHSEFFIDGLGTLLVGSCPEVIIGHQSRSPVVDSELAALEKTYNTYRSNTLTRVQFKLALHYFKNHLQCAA

| binding | Substance |
| --- | --- |
| binds | AXL (from UniProt P30530 26-894) (receptor) |
| binds | CLU (from UniProt P10909 23-449) |
| binds | EIF4A2 (from UniProt Q14240 1-407) |
